Measurements taken from patent US20160081912A1, “COMPOSITIONS FOR IMPROVING THE HAIR, SKIN, AND NAILS” (FYBRANDS CORP., priority 2013, published 2016).
At least one compound was matched to its structure with a doubt left.

Assay: Solubility of cycloastragalus in water, acetone and oil carriers
Type: physicochemical
Conditions: either or in combination
Description: In certain embodiments, the disclosure provides compositions to deliver the active ingredient to the root bulb of the hair follicle. Cycloastragalus is not soluble in water. Creating a cream formulation could possibly lead to clogging of pores at the site of the hair follicle, which could negatively affect restoration of the follicle. In certain aspects, the present disclosure relates to delivery of cycloastragalus using oil-based formulations. Oil is absorbed into the stratum corneum and deeper layers of the skin where the root bulb cells are located.
Initial attempts at determining an appropriate oil carrier were done using either or in combination together C10-30 Cholesterol and Lanosterol esters.
Further attempts were then made in to dissolve the cycloastragalus in oil carrier.
Cycloastragalus is soluble in acetone. We evaluated the possibility that cycloastragalus could be first dissolved in acetone and then put into solution with an oil carrier. Since acetone evaporates to completion out of any open system, it could be removed leaving the cycloastragalus in solution. One should keep in mind that acetone is incredibly flammable, and methods for removing acetone should be chosen carefully.

CC(C)(O)[C@@H]1CC[C@](C)([C@H]2[C@@H](O)C[C@@]3(C)[C@@H]4C[C@H](O)[C@H]5C(C)(C)[C@@H](O)CC[C@@]56C[C@@]46CC[C@]23C)O1 [Cycloastragalus, cycloastragenol]
solubilizing in oil carrier C10-30 Cholesterol and Lanosterol esters: successful
